Results taken from US6451848B1 (Nastech Pharmaceutical Company, Inc., priority 1999, dated 2002).
Like-named read-outs stand apart in the source and are kept apart here.

Tests used:
[1] = human, n = 10
clinical = conditions: human, plasma, im, Average TMAX (time for the average peak concentration), n = 10
[2] = 2.5 mg I.M., listed as 1, Sulfate
[3] = 5 mg I.M., listed as 2, Sulfate

**Q.** Which “Average CMAX (average peak plasma concentration of free morphine)” value ([1]; 2.5 mg I.M., Sulfate) does the source give for CN1CC[C@]23c4c5ccc(O)c4O[C@H]2[C@@H](O)C=C[C@H]3[C@H]1C5.O=S(=O)(O)O [Morphine Sulfate] here?
**A.** approximately 10.7 ng/ml

**Q.** And the “Average CMAX (average peak plasma concentration of free morphine)” value [1, 2]?
**A.** 10.7 ng/mL

**Q.** What about the “Average TMAX (time for the average peak concentration)” value [1, 2] of the same compound?
**A.** 10 min

**Q.** What about the “Average CMAX (average peak plasma concentration of free morphine)” value ([1]; 5 mg I.M., Sulfate) of the same compound?
**A.** approximately 10.7 ng/ml

**Q.** What about the “Average CMAX (average peak plasma concentration of free morphine)” value [1, 3] of the same compound?
**A.** 26.4 ng/mL

**Q.** What about the “Average TMAX (time for the average peak concentration)” value [1, 3] of the same compound?
**A.** 8 min

**Q.** What about the Tmax (clinical; 2.5 mg, 2.5 mg I.M.) of the same compound?
**A.** ~10 min

**Q.** What about the Tmax (clinical; 5 mg, 5 mg I.M.) of the same compound?
**A.** ~8 min
